Measurements reported in the supplement of paper PMC12889115.
This is one part of the list. These are raw signals, not scaled to a control.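 First-pass screen: polymyxin B was added at a level that permeabilizes the Salmonella outer membrane while sparing the inner membrane. DMSO wells, with and without polymyxin B, defined maximum growth. Because plates differed from one another, each plate's data were ranked separately and the compounds with the lowest OD600 were carried forward as hits.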

Tested on: Salmonella enterica serovar Typhimurium SL1344
Experiment: bacterial growth OD600 after 18 h with compound and polymyxin B; higher = more bacterial growth (less inhibition)
Settings: 50 µM, Mueller-Hinton broth

Row | SMILES | bacterial growth OD600 (polymyxin B 0.75 µg/mL) | bacterial growth OD600 (polymyxin B 1 µg/mL)
1 | COC(=O)[C@@H]1CCCN1C(=O)c1cc(NS(=O)(=O)N(C)C)cc2nc(CC(C)C)n(C)c12 | 0.842 | 
2 | Cc1ccccc1N1CCN(C2CCCN(C(=O)C3CCCCCC3)C2)CC1 (configuration not stated) |  | 0.847
3 | COCCNC(=O)c1ccc(OC)cc1OC1CCN(Cc2nccn2C)CC1 |  | 1.01
4 | CCOC(=O)C1(Cc2ccccc2)CCN(Cc2ccc(OC)cc2F)CC1 |  | 0.801
5 | Cc1nc2ccccc2n1CCC(=O)N1CCCC(Nc2ccc(F)cc2)C1 (configuration not stated) |  | 0.967
6 | CCOC(=O)N1CCC(N2CCCC(C(=O)c3cccc4ccccc34)C2)CC1 (configuration not stated) |  | 0.709
7 | CCn1ccnc1CN1CCC2(CCCN(Cc3cc(OC)ccc3F)C2=O)C1 (configuration not stated) |  | 0.812
8 | COc1ccccc1Oc1ncccc1CNC(=O)C1CCOCC1 |  | 1.04
9 | Cc1csc(C(C)NC(=O)c2cc(COc3ccc4c(c3)OCO4)[nH]n2)n1 (configuration not stated) |  | 0.859
10 | COc1ccc(Cc2noc(-c3ccc(N(C)Cc4nnc(C)o4)nc3)n2)cc1 |  | 0.87
11 | O=C(CC(c1ccccc1)c1ccc2c(c1)OCO2)NCCc1cnccn1 (configuration not stated) |  | 0.843
12 | CCN(Cc1c[nH]cn1)CC1CCCN(CCc2cccc(F)c2)C1 (configuration not stated) | 0.85 | 
13 | CCOC(=O)C1(Cc2ccc(F)cc2)CCCN(C(=O)c2cc(CC(C)C)n[nH]2)C1 (configuration not stated) | 0.528 | 
14 | CCc1noc(CN(C)c2ccc(-c3nc(C(C)C)no3)cn2)n1 | 0.873 | 
15 | O=C(NCC1COCCO1)C1CCN(c2nc(-c3ccccc3)nc3c2CCC3)CC1 (configuration not stated) |  | 0.867
16 | COc1ccc(F)c(CN2CCCC3(CCN(c4cnccn4)C3)C2=O)c1 (configuration not stated) |  | 0.906

Reformatted field by field: entries from further up.
COc1ccccc1Oc1ncccc1CNC(=O)C1CCOCC1
  bacterial growth OD600 (polymyxin B 1 µg/mL): 1.04
Cc1csc(C(C)NC(=O)c2cc(COc3ccc4c(c3)OCO4)[nH]n2)n1 (configuration not stated)
  bacterial growth OD600 (polymyxin B 1 µg/mL): 0.859

Further structures follow.

Row | SMILES | bacterial growth OD600 (polymyxin B 0.75 µg/mL) | bacterial growth OD600 (polymyxin B 1 µg/mL)
17 | OCC1(Cc2ccccc2F)CCCN(Cc2c(F)cccc2Cl)C1 (configuration not stated) |  | 0.6
18 | Cc1c(C(C)NCc2cccc(F)c2)cnn1-c1ccccc1 (configuration not stated) | 0.373 | 
19 | CN(CCC1CCCCO1)C(=O)c1coc(COc2cccc(F)c2)n1 (configuration not stated) |  | 0.898
20 | Cc1nccn1-c1ccc(CNC(=O)C2CCC(=O)N(Cc3ccccc3F)C2)cc1 (configuration not stated) |  | 0.932
21 | CCn1c(-c2cccc(OC)c2)nc2cc(NC(C)=O)cc(C(=O)NC(C)Cc3ccccn3)c21 (configuration not stated) | 0.879 | 
22 | COc1ccc(C(=O)Nc2ccnn2C2CCN(C(=O)c3occc3C)CC2)cc1 |  | 0.956
23 | COc1ccccc1C(=O)NC1CC(=O)N(Cc2ccc(F)cc2)C1 (configuration not stated) |  | 0.924
24 | CSc1ccc(CN2CCCC(N3CCN(c4ccccc4C)CC3)C2)cc1 (configuration not stated) |  | 0.915
25 | CCOC(=O)C1(C/C=C/c2ccccc2)CCCN(Cc2nccs2)C1 (configuration not stated) | 0.004 | 
26 | CC(C)c1ccc(NC2CCCN(C(=O)c3cc(C(C)C)n[nH]3)C2)cc1 (configuration not stated) |  | 0.614
27 | CCCc1cc(CNC(=O)c2ccc(N(C)CC)nc2)on1 |  | 0.933
28 | O=C(Cc1ccc(N2CCC(NCCc3cccs3)CC2)cc1)NCc1ccccc1 | 0.808 | 
29 | CCNC(=O)N(C)CC1CCCN(CCc2ccc(OC)cc2)C1 (configuration not stated) |  | 1.08
30 | CC1(C)Cc2nc(C(C)(C)C)ncc2C(NC(=O)CCN2CCCC2=O)C1 (configuration not stated) |  | 1.01
31 | CC(C)CCN1CCC(N2CCCC(C(=O)NC3CC3)C2)CC1 (configuration not stated) | 0.84 | 
32 | CN(C(=O)CCn1cnnn1)C1CCCN(CCc2ccccc2)C1 (configuration not stated) |  | 1.17
